Reference: PubChem BioAssay AID2685 (National Center for Advancing Translational Sciences (NCATS), 2010)
This is one part of the list. These are further read-outs of the screen, such as a control signal, another cell line or another target. No call is given for them. The list favours compounds with an active or inconclusive main result. Potencies come from curve fits of mixed quality, noted in brackets. *1 amine or outer side, *2 acyl side, *3 side chain or, on linkers, in order; H or OH if unused. Where a SMILES comes first, the peptide text is derived from it. Bridges are numbered along the chain shown (N, C = ends). [ ]: non-standard residue; d: D form. ξ: configuration not given here. hSer(Ph(2-I,4-NO2,6-CO)) = O=C([C@H](CCOc1c(I)cc([N+](=O)[O-])cc1C(=O)[*:3])N[*:1])[*:2]; ξD = NC(CC(=O)O)C(=O)O

Assay: qHTS Assay for Lipid Storage Modulators in Drosophila S3 Cells;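 on cell number change: cells counted by Cell Tracker Red CMTPX staining in the red channel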
Details: BODIPY lipid droplet fluorescence, 18-24 h; for cell number change: measured here: cell count max response, cells fed with added oleic acid
How it was run: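 Drosophila S3 cells loaded with oleic acid (400 uM, as added) and compounds at several concentrations; lipid droplets imaged by 488-nm laser-scanning cytometry, 500–530 nm intensity and object ratio to cell channel. Percent activity normalized to 20 uM Triacsin C.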

[1] = measured here: lipid fluorescence (Fed channel) AC50, cells fed with added oleic acid
[2] = measured here: cell number channel AC50, cells fed with added oleic acid

Row | SMILES | cell number change [%] | AC50 [1] | AC50 [2]
1 | O=C(O)C1OC(C(=O)O)C2C1C(F)(F)C2(F)F (configuration not stated) | -27.3 | 3.66 µM [falling, full curve] | –
2 | COc1ccc(-c2nc(CN3CCN(C(=O)c4ccco4)CC3)c(C)o2)c(F)c1 | 27.6 | 3.66 µM [rising, partial curve, poor fit] | –
3 | O=C(Cc1cccc(C(F)(F)F)c1)N1CCCC1 | -3.81 | 29.1 µM [rising, single point] | –
4 | O=C1c2cc(O)c(O)cc2S(=O)(=O)C1c1ccccc1 (configuration not stated) | 20 | 6.51 µM [rising, single point] | –
5 | CC(C)NC(=O)c1cc2c(-c3ccc(Cl)cc3)nn(C)c2s1 | 23.7 | – | 0.184 µM [rising, full curve, poor fit]
6 | CN(C)c1ccc([C@@H]2[C@@H]([N+](=O)[O-])[C@H]3C=Cc4ccccc4N3[C@H]2C(=O)c2ccc(Cl)cc2)cc1 | -36.2 | 11.6 µM [falling, partial curve] | 18.4 µM [falling, single point]
7 | NS(=O)(=O)c1ccc(CNC(=O)/C=C/c2cccc([N+](=O)[O-])c2)cc1 | 15.4 | 6.51 µM [rising, single point] | –
8 | c1ccc(-n2ncc3c(NCCN4CCOCC4)ncnc32)cc1 | -19.9 | 0.461 µM [falling, full curve] | 7.31 µM [falling, partial curve, poor fit]
9 | CCCCN(CC)C(=O)Cn1cnc2ccc(S(=O)(=O)N3CCC(C)CC3)cc2c1=O | 11.7 | 0.103 µM [falling, single point] | –
10 | COc1cc(NC(=O)c2ccc(-c3cccc([N+](=O)[O-])c3)o2)ccc1NC(=O)C(C)C | -7.97 | 1.84 µM [falling, full curve] | 3.66 µM [falling, single point]
11 | CCC(CC)C(=O)c1c[nH]c(C(=O)NCc2ccccc2OC)c1 | -43.1 | 29.1 µM [falling, single point] | 29.1 µM [falling, single point]
12 | COc1ccc(S(=O)(=O)N2CCN(C3Cc4ccccc4C3)CC2)cc1 | 17.1 | – | –
13 | CCOc1c(Br)cc(C(=O)OCC(=O)N2CCc3ccccc3C2)cc1OC | 5.14 | 6.51 µM [rising, partial curve, poor fit] | –
14 | Cc1cccc(C(=O)Nc2ccccc2C(=O)NCc2ccco2)c1 | 46.6 | 0.116 µM [rising, full curve, poor fit] | –
15 | CCOc1ccc(/C=C/c2[nH]c(=O)[nH]c(=O)c2[N+](=O)[O-])cc1 | 12.6 | 20.6 µM [rising, single point] | –
16 | C[C@@H]1NC(=O)c2cc([N+](=O)[O-])cc(I)c2OCC[C@@H](C(=O)NC(CC(=O)O)C(N)=O)NC(=O)[C@H](CC(N)=O)NC1=O (some centres not stated) (AN[hSer(Ph(2-I,4-NO2,6-CO))][ξD]-NH2; lactam N-3) | 21.1 | 0.291 µM [rising, full curve] | 0.184 µM [rising, full curve, poor fit]

Row | SMILES | cell number change [%] | AC50 [1] | AC50 [2]
17 | CCn1cc(CCCC(=O)NCc2cccnc2)c2ccccc21 | -32.6 | – | 0.0731 µM [falling, full curve, poor fit]
18 | COc1ccc(C(=O)Nc2ccc(N3CCN(C)CC3)cc2)cc1OC | 28.1 | 29.1 µM [rising, single point] | –
19 | COc1ccc(C(=O)Nc2ccc(S(=O)(=O)N3CCCCC3C)cc2)c(OC)c1OC (configuration not stated) | -39.7 | 0.731 µM [falling, full curve] | 2.59 µM [falling, full curve]
20 | COc1ccccc1N(C(=O)c1csnn1)C(C(=O)NC1CCCC1)c1ccccc1 (configuration not stated) | -7.26 | 0.103 µM [falling, full curve, poor fit] | –
21 | COc1cc([N+](=O)[O-])ccc1NC(=O)CCCOc1ccccc1 | 141 | – | –
22 | Cc1cc(C)cc(N2C(=O)CN(Cc3sccc3C)C2=S)c1 | -24.9 | 0.184 µM [falling, full curve, poor fit] | 0.146 µM [falling, full curve, poor fit]
23 | O=C(CN1C(=O)/C(=C/c2ccc(F)cc2)SC1=S)NC1C=CS(=O)(=O)C1 (configuration not stated) | -32.3 | 0.731 µM [falling, single point] | 18.4 µM [falling, partial curve, poor fit]
24 | CCOC(=O)c1nnc2c(Br)c(-c3ccccc3)nn2c1C | -32.6 | 32.6 µM [falling, single point] | 18.4 µM [falling, partial curve, poor fit]
25 | Cc1cccc(CC(=O)NCCN2CCCCC2)c1 | -3.3 | 4.61 µM [rising, single point] | –
26 | CC(=O)Oc1ccc(Cl)cc1/C=C/c1cc(OC(C)=O)c2ccccc2n1 | – | 2.91 µM [rising, partial curve] | 1.64 µM [rising, partial curve]
27 | O=C(CCS(=O)(=O)c1ccc(Br)s1)NC1CCCC1 | – | 6.51 µM [rising, single point] | –
28 | CCCCn1c(N)c(N(Cc2ccccc2OC)C(=O)CN2C(=O)NC3(CCCC3)C2=O)c(=O)[nH]c1=O | 2.04 | 29.1 µM [rising, single point] | –
29 | Cn1c(=O)c2c(nc(NCCCO)n2Cc2cccc(C(F)(F)F)c2)n(C)c1=O | -61.3 | 29.1 µM [falling, single point] | 8.2 µM [falling, partial curve]
30 | Cc1ccc(-n2ncc3c(Nc4c(C)n(C)n(-c5ccccc5)c4=O)ncnc32)c(C)c1 | 7.05 | 0.651 µM [rising, single point] | –
31 | CCC(=C/c1sc2ccc3ccccc3c2[n+]1C)/C=C1\Sc2ccc3ccccc3c2N1C | -59.1 | – | 2.31 µM [falling, full curve]
32 | COc1ccc(S(=O)(=O)N(C)c2ccc(C(=O)NCc3ccco3)cc2)cc1 | 7.51 | 0.231 µM [rising, full curve] | 3.26 µM [rising, partial curve, poor fit]

An excerpt from above in order of length of the SMILES, rising:
Row | SMILES | cell number change [%] | AC50 [1] | AC50 [2]
26 | CC(=O)Oc1ccc(Cl)cc1/C=C/c1cc(OC(C)=O)c2ccccc2n1 | – | 2.91 µM [rising, partial curve] | 1.64 µM [rising, partial curve]
23 | O=C(CN1C(=O)/C(=C/c2ccc(F)cc2)SC1=S)NC1C=CS(=O)(=O)C1 (configuration not stated) | -32.3 | 0.731 µM [falling, single point] | 18.4 µM [falling, partial curve, poor fit]
28 | CCCCn1c(N)c(N(Cc2ccccc2OC)C(=O)CN2C(=O)NC3(CCCC3)C2=O)c(=O)[nH]c1=O | 2.04 | 29.1 µM [rising, single point] | –
